Values quoted from earlier work in patent publication US12527811B2, “Defibrotide for the prevention and treatment of cytokine release syndrome and neurotoxicity associated with immunodepletion” (priority 2018, dated 2026).
Some of these results come from one statement about several compounds together.

Settings: hypotension refractory to fluid boluses; per Neelapu et al; cited from earlier work

siltuximab
response rates: > 95%
